This passage reports binding results from PMC7946643.

Sequences of proteins named here, by UniProt entry; tags and fusion partners are left off.
UniProt Q09666: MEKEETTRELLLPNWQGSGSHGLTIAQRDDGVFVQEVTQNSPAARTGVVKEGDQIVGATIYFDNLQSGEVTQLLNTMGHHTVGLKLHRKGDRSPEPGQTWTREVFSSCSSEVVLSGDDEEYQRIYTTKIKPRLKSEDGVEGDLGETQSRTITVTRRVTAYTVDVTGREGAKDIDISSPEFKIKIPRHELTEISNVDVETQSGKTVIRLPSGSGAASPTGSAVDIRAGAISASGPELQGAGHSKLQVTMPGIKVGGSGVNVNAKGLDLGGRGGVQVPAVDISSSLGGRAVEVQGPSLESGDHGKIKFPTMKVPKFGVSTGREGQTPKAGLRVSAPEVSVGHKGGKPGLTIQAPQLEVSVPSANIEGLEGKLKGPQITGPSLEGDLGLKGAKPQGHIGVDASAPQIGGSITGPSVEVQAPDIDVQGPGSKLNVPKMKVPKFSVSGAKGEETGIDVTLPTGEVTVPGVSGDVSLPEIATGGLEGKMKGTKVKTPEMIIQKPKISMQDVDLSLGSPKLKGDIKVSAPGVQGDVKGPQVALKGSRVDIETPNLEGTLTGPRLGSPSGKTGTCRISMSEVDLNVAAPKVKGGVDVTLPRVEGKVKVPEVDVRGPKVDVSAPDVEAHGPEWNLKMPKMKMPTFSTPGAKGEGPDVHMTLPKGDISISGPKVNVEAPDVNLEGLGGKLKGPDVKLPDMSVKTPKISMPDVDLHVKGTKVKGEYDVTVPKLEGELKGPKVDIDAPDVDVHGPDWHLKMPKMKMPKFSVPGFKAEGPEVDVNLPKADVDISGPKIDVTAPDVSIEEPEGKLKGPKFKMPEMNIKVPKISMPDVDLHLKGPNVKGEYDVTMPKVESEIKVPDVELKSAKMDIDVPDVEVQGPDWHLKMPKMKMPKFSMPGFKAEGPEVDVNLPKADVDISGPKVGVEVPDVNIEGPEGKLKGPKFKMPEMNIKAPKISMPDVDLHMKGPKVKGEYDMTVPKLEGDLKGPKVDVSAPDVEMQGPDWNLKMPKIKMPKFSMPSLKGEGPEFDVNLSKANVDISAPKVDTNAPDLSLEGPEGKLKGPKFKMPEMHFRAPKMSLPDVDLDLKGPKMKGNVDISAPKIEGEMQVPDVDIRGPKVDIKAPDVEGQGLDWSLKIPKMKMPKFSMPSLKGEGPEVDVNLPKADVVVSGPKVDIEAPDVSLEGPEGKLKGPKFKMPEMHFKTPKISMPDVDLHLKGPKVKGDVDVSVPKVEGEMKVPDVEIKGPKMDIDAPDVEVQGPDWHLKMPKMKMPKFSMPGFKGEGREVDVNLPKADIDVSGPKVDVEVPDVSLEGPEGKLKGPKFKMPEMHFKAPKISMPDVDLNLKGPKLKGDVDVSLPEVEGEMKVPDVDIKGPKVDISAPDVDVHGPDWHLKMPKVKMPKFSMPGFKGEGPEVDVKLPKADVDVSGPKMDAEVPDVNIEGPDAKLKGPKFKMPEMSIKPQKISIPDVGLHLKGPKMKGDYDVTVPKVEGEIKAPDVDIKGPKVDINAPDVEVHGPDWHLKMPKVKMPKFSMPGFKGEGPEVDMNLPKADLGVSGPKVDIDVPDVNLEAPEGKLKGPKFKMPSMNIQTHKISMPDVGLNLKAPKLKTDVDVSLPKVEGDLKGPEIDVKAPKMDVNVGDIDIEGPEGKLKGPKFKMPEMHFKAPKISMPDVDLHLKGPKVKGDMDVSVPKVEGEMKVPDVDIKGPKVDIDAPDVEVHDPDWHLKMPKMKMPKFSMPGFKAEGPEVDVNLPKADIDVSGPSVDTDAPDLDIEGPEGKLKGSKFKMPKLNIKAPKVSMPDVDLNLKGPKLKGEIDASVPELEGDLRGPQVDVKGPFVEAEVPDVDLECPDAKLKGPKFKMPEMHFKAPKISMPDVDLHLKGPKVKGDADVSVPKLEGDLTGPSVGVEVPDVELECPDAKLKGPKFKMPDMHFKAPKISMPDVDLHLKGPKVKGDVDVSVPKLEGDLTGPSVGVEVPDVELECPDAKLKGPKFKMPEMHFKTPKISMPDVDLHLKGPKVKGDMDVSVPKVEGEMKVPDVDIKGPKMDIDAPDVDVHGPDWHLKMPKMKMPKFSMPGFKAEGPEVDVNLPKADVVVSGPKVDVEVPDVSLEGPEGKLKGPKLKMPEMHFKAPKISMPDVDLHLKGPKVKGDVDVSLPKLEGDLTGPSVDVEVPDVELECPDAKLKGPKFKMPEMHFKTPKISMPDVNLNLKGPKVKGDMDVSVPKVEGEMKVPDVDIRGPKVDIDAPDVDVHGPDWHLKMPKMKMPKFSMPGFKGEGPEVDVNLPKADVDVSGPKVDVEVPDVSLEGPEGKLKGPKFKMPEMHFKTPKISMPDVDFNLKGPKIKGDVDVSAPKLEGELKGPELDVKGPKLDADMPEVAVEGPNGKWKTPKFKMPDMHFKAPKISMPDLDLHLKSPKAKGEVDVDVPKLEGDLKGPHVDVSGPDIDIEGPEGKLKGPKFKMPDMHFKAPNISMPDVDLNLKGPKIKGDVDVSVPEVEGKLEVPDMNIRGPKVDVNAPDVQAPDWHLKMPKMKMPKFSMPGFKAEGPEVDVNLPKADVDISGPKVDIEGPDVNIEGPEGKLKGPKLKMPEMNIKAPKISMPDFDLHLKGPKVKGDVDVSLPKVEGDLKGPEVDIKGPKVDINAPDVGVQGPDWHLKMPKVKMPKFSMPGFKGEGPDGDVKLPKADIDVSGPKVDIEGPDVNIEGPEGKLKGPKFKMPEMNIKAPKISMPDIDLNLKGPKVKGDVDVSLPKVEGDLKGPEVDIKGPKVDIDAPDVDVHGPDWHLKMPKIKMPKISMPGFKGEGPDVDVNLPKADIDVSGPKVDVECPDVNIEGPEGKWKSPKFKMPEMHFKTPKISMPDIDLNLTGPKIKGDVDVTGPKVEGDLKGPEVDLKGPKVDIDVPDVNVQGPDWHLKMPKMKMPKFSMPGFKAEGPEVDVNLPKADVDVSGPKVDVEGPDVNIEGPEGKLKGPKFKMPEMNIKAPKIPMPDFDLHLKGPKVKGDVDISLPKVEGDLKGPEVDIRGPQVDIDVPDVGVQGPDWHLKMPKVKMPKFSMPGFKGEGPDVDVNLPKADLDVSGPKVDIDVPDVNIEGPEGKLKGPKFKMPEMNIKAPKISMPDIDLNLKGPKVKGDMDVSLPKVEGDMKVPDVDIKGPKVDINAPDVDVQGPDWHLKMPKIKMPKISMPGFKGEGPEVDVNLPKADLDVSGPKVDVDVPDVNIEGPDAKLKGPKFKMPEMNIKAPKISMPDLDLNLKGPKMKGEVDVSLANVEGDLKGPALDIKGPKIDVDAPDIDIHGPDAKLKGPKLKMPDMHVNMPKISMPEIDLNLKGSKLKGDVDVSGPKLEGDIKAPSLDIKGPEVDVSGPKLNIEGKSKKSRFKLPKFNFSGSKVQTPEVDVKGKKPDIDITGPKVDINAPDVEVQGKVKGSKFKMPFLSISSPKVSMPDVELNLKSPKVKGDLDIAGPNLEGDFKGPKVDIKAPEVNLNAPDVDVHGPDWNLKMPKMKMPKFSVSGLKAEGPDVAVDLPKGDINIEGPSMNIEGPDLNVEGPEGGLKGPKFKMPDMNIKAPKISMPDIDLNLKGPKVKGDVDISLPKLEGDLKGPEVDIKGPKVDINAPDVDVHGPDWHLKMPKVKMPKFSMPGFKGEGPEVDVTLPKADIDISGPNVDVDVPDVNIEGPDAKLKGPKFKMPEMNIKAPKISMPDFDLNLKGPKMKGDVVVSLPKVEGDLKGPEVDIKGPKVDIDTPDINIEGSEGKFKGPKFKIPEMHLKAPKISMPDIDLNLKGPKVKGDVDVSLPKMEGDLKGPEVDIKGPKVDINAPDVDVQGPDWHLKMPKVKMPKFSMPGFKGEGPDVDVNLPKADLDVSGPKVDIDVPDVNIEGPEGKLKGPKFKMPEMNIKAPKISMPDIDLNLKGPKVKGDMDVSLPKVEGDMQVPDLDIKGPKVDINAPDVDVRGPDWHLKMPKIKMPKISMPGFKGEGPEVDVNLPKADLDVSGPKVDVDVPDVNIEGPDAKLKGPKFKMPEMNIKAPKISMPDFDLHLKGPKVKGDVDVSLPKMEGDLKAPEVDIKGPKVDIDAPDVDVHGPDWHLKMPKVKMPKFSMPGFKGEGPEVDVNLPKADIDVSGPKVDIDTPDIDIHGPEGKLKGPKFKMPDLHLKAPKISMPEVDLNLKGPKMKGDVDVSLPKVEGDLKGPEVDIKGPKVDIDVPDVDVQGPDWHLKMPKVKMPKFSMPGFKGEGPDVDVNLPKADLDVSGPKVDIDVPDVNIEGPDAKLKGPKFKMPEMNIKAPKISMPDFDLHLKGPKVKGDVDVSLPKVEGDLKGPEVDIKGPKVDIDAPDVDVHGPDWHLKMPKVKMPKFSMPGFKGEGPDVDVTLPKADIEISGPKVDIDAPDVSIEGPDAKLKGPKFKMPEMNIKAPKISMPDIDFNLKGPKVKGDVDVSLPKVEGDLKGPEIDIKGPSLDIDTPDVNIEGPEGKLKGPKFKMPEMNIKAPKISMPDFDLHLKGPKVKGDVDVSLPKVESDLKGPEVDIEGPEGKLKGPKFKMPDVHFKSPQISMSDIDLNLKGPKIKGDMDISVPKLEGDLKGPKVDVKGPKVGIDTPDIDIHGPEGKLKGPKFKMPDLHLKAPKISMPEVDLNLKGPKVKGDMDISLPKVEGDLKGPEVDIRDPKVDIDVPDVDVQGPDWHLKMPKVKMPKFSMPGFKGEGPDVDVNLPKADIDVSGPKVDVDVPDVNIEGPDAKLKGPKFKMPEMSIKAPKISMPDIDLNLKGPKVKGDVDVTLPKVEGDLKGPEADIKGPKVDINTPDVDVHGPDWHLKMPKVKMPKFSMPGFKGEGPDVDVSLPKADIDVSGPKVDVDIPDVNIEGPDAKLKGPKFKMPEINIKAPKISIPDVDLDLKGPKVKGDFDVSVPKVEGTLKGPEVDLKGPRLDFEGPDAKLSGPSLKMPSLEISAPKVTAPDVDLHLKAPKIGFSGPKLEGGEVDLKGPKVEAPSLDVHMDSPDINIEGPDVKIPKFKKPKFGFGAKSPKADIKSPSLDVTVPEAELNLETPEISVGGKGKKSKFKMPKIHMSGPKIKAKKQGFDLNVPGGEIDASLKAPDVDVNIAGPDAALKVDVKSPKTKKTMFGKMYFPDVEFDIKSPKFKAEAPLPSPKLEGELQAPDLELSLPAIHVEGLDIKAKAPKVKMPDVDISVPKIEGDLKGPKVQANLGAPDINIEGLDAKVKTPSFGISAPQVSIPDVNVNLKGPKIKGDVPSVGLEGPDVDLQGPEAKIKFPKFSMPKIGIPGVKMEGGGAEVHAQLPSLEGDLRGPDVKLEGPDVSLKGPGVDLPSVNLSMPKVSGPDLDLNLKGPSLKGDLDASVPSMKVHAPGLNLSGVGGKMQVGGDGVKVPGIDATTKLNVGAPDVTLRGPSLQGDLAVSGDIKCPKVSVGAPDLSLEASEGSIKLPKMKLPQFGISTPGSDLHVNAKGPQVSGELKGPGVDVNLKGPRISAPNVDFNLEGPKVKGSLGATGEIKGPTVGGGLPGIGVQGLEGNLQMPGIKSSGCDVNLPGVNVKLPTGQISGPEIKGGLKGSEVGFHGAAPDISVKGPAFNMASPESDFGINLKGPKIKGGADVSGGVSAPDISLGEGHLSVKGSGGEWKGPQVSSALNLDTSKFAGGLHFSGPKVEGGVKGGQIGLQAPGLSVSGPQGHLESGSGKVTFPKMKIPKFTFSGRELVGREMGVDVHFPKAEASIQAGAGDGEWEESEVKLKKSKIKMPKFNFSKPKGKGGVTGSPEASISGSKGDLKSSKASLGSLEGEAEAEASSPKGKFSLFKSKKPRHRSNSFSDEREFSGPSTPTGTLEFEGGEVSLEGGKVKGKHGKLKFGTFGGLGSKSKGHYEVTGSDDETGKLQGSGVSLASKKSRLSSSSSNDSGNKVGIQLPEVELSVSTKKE
UniProt Q96RD7: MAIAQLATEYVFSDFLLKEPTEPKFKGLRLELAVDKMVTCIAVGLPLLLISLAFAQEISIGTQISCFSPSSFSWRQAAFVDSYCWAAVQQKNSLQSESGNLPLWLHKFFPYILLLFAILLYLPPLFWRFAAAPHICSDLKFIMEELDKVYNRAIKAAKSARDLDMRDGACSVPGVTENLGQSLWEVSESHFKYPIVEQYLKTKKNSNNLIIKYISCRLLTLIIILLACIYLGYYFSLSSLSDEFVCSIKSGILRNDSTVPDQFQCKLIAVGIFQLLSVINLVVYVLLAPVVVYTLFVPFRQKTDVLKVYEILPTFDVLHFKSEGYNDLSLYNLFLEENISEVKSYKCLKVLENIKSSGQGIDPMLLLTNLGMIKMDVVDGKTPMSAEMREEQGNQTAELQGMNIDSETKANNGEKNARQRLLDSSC

This assay deals with AHNAK (human (endogenous in Rh18 and Rh30)) (UniProt Q09666). The experiment in a line: co-IP; whole-cell lysates of stable Rh18 and Rh30 cells induced for 48 h, IP lysis buffer, 5-8 ug antibody (anti-Myc or anti-AHNAK) for 16 h, protein A/G plus agarose beads, western blot. Background: In western blotting, separated proteins are transferred to a membrane and probed.

Results are given in words; binding and its absence hold for the method and conditions named. In cells and extracts the contact can be indirect. Some binding calls cover weakened binding; strength is not graded here.

Turning to pannexin 1 (from UniProt Q96RD7 1-426), the binding entry was “binds”.
